This is an account of results in paper PMC8490708.

One assay concerns the target T1, CBX4-BirA* (human) (UniProt O00257).
T1 sequence: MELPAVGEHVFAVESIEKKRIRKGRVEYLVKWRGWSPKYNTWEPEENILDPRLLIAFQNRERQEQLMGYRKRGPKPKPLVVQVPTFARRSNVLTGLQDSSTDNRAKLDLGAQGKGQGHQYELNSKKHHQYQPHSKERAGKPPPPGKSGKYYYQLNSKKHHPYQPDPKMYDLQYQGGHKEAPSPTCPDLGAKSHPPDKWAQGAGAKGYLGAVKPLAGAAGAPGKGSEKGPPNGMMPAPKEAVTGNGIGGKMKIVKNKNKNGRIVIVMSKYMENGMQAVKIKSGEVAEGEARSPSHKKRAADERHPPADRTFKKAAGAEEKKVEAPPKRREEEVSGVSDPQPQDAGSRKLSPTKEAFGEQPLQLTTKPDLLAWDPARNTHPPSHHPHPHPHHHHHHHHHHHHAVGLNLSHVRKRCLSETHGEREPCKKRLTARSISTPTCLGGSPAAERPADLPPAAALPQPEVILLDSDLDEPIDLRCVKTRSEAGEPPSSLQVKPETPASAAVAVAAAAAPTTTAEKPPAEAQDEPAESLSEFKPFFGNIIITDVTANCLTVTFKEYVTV
Put plainly: proximity labelling; BioID: BirA* fusion co-transfected with HA-tagged SALL1 in HEK 293FT cells, biotin added; lysis in 8 M urea, 1% SDS; NeutrAvidin-agarose pulldown of biotinylated material, stringent washes, Western blot with anti-HA. (A western blot detects proteins with antibodies after separation by electrophoresis.)

Assay [1] deals with T2, DmPc-BirA* (Drosophila melanogaster) (UniProt P26017).
T2 sequence: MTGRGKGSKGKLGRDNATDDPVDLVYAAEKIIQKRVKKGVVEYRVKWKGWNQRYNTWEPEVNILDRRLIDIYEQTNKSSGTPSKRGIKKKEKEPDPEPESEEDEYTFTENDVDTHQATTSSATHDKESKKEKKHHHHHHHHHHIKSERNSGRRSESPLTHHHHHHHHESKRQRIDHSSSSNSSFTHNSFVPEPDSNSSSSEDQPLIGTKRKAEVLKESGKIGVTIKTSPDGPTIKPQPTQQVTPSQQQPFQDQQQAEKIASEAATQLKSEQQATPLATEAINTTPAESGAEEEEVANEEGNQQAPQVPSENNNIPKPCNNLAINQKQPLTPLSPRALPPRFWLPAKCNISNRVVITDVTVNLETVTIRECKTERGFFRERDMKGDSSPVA
The description is as above.

These are yes or no findings as the source states them, for the method shown. Binding seen in cells or lysates may run through a third protein. Here binding means that the protein was enriched with, or labelled near, the bait; the list need not be complete.

Consider “SALL1^826-2xHA (human) (domain or fragment)”, for which the binding result with CBX4-BirA* (human) is “binds”.

B1: SALL1-2xHA (protein, UniProt Q9NSC2 1-1324)
chain: MSRRKQAKPQHFQSDPEVASLPRRDGDTEKGQPSRPTKSKDAHVCGRCCAEFFELSDLLLHKKNCTKNQLVLIVNENPASPPETFSPSPPPDNPDEQMNDTVNKTDQVDCSDLSEHNGLDREESMEVEAPVANKSGSGTSSGSHSSTAPSSSSSSSSSSGGGGSSSTGTSAITTSLPQLGDLTTLGNFSVINSNVIIENLQSTKVAVAQFSQEARCGGASGGKLAVPALMEQLLALQQQQIHQLQLIEQIRHQILLLASQNADLPTSSSPSQGTLRTSANPLSTLSSHLSQQLAAAAGLAQSLASQSASISGVKQLPPIQLPQSSSGNTIIPSNSGSSPNMNILAAAVTTPSSEKVASSAGASHVSNPAVSSSSSPAFAISSLLSPASNPLLPQQASANSVFPSPLPNIGTTAEDLNSLSALAQQRKSKPPNVTAFEAKSTSDEAFFKHKCRFCAKVFGSDSALQIHLRSHTGERPFKCNICGNRFSTKGNLKVHFQRHKEKYPHIQMNPYPVPEHLDNIPTSTGIPYGMSIPPEKPVTSWLDTKPVLPTLTTSVGLPLPPTLPSLIPFIKTEEPAPIPISHSATSPPGSVKSDSGGPESATRNLGGLPEEAEGSTLPPSGGKSEESGMVTNSVPTASSSVLSSPAADCGPAGSATTFTNPLLPLMSEQFKAKFPFGGLLDSAQASETSKLQQLVENIDKKATDPNECIICHRVLSCQSALKMHYRTHTGERPFKCKICGRAFTTKGNLKTHYSVHRAMPPLRVQHSCPICQKKFTNAVVLQQHIRMHMGGQIPNTPVPDSYSESMESDTGSFDEKNFDDLDNFSDENMEDCPEGSIPDTPKSADASQDSLSSSPLPLEMSSIAALENQMKMINAGLAEQLQASLKSVENGSIEGDVLTNDSSSVGGDMESQSAGSPAISESTSSMQALSPSNSTQEFHKSPSIEEKPQRAVPSEFANGLSPTPVNGGALDLTSSHAEKIIKEDSLGILFPFRDRGKFKNTACDICGKTFACQSALDIHYRSHTKERPFICTVCNRGFSTKGNLKQHMLTHQMRDLPSQLFEPSSNLGPNQNSAVIPANSLSSLIKTEVNGFVHVSPQDSKDTPTSHVPSGPLSSSATSPVLLPALPRRTPKQHYCNTCGKTFSSSSALQIHERTHTGEKPFACTICGRAFTTKGNLKVHMGTHMWNSTPARRGRRLSVDGPMTFLGGNPVKFPEMFQKDLAARSGSGDPSSFWNQYAAALSNGLAMKANEISVIQNGGIPPIPGSLGSGNSSPVSGLTGNLERLQNSEPNAPLAGLEKMASSENGTNFRFTRFVEDSKEIVTS
B1: the binding entry (in the assay with CBX4-BirA* (human); in assay [1]) was “binds” in each case.
